System: cellular proteins of HEK-293 and MCF7 cell lines
Test: 3Px probe protein labelling, UV irradiation, anti-puromycin immunoblot
Assay type: cell-based
Conditions: MCF7, different concentrations, 10 min
Experimental: For our initial analysis, we treated HEK-293 and MCF7 cell lines in complete culture medium with the 3PB probe (10 μM) for 10 min, followed by irradiation for 5 min on ice (total power: 0.75 J/cm2). We first assessed 3PB labeling of cellular proteins using SDS-PAGE analysis. […] Then, we compared the labelling activity of 3PB, 3PA and 3PBis in HEK293 and MCF7 cells, adding the probes before or after cell lysis. In the latter case, each probe is incubated for 1 h in the cytoplasmic cell extract at 4° C., followed by UV irradiation (0.75 J/cm^2) of the treated lysate. […] Therefore, both 3PB and 3PBis show additional bands with MW=˜50 kDa, when reacted in the cell lysate, with respect to the situation when probes are incubated with growing cells (FIG. 6a). […] This is presumably due to the higher hydrophobicity of the 3PBis probe and a consequent better cell membrane penetration (FIG. 7).
To test 3PN and 3PO activity, we treated MCF7 cells with different concentrations of the two drugs for 10 min, followed by UV-356 irradiation.
Reaction in cell culture: MCF7 or HEK-293 cells were grown to 80% of confluence and treated with CHX (10 μg/mL, 5 min, 37° C.) and then with the probe (10 min, 37 C). […]

Structure (SMILES)	MW of main puromycin-tag band
C#CCOc1cc(C2(C(F)(F)F)N=N2)ccc1C(=O)N[C@@H](Cc1ccc(OC)cc1)C(=O)N[C@H]1[C@@H](O)[C@H](n2cnc3c(N(C)C)ncnc32)O[C@@H]1CO [3PN]	about 65 kDa
COc1ccc(CC(NC(=O)C(CCN=[N+]=N)NC(=O)CCC2(C)N=N2)C(=O)NC2C(CO)OC(n3cnc4c(N(C)C)ncnc43)C2O)cc1 (centres unmarked) [3PO]	about 65 kDa

— US11629165B2, “Molecules for targeting ribosomes and ribosome-interacting proteins, and uses thereof” (Immagina Biotechnology S.r.l., priority 2018, dated 2023)
